Results reported in PubChem BioAssay AID540276 (National Center for Advancing Translational Sciences (NCATS), 2011).
Values joined by “and” are separate entries in the source; they are usually repeats but may differ in a detail not shown here. Identical values can stand only once. The whole screen tested about 300,000 compounds, of which about 5,400 (1.8%) were called active. Inconclusive means that the source gave no clear call. Such entries were picked first, then a sample of the others. Calls come from the whole dose curve; tested in HEK293 cells. Potencies beside an inconclusive call are fits to weak or partial responses and may not hold up. More than one record can exist for a structure, and the calls need not agree.

Assay: qHTS for inhibitors of binding or entry into cells for Marburg Virus
Conditions: Marburg virus pseudotyped entry inhibition, cell reporter; activity change, negative = inhibition: at 37.8 µM (top of the series) unless noted
% is set by controls: 0 for no effect and ±100 for the full control effect; potency is the fitted concentration of half-maximal effect.

SMILES	Potency	activity change, negative = inhibition
CC(=O)c1cc(C#N)c(SCc2ccc([N+](=O)[O-])cc2)nc1C	inconclusive: 8.91 µM [inhibitor, partial curve, poor fit]	
Nc1ccccc1SCC(O)Cn1ccc2ccccc21 (stereo not given)	inconclusive: 14.1 µM [inhibitor, partial curve, poor fit]	
CNC(=S)NNC(=O)c1cccn(Cc2cccc(Cl)c2)c1=O	inconclusive: 1.16 µM [activator, full curve, poor fit]	
O=C(Cc1cccs1)Nc1ccc(Cl)c(S(=O)(=O)N2CCOCC2)c1	inconclusive: 35.5 µM [inhibitor, single point]	
O=C(Cc1ccc(S(=O)(=O)N2CCOCC2)s1)Nc1cc(Cl)ccc1Cl		inactive: -7.36% [at 46.1 µM]
OC(COC(c1ccc(Cl)cc1)c1ccc(Cl)cc1)CN1CCc2ccccc2C1 (stereo not given)	inconclusive: 7.94 µM [inhibitor, partial curve, poor fit]	
Cc1c(Cl)ccc(S(=O)(=O)N2CCN=C2c2ccccc2)c1Cl	inconclusive: 1.41 µM [activator, partial curve, poor fit]	
COc1ccc2[nH]c(=O)c(C(c3nnnn3C3CCCCC3)N3CCN(C)CC3)cc2c1 (stereo not given)	inconclusive: 1.64 µM [inhibitor, partial curve, poor fit]	
CC(=O)Nc1ccc(S(=O)(=O)N2CCC(N3CCCC3)CC2)cc1		inactive: -1.98%
O=C1NC(=O)N(Cc2ccco2)C(=O)/C1=C/c1ccc(-c2cccc([N+](=O)[O-])c2)o1		inactive: -12.4%
CCOC(=O)N1CCN(c2c(-c3ccc(C(C)C)cc3)c(=O)c2=O)CC1	inconclusive: 0.0052 µM [inhibitor, full curve, poor fit]	
CC(=O)c1sc(NC(=O)c2cccc(C)c2)nc1C	inconclusive: 1.41 µM [activator, partial curve, poor fit]	
CCOC(=O)NN=C1CN(S(=O)(=O)c2ccc(C)cc2)C1	inconclusive: 20 µM [inhibitor, partial curve, poor fit]	
CC(O)C1C=CC=CC(=O)OC2CC3OC4C5OC5(C)CCC4(COC(=O)C4OC4(C)C(O)CO1)C2(C)C31CO1 (stereo not given)	inconclusive: 0.1 µM [inhibitor, full curve, poor fit]	
CC(=O)N(CCC1(c2ccc(C)cc2)CCOC(C(C)C)C1)Cc1ccco1 (stereo not given)	inconclusive: 28.2 µM [inhibitor, single point]	
CCCCOc1cccc(C(=O)NC(=S)Nc2cccnc2)c1	inconclusive: 1.26 µM [activator, single point]	
CCOc1ccccc1CN1CCN(Cc2cc3ccccc3[nH]2)CC1CCO (stereo not given)	inconclusive: 11.2 µM [inhibitor, partial curve, poor fit]	
COC(=O)C(Cc1c[nH]c2ccccc12)NC(=O)CNC(C)=O (stereo not given)		inactive: 7.94%
Cc1ccc(S(=O)(=O)N(Cc2ccccc2)c2ccccc2C(=O)N2CCCCC2)cc1	active: 10 µM	
CSc1nnc(-c2ccccc2)o1		inactive: 0.72%
Cc1ccc(S(=O)(=O)Oc2ccc(N3C(=O)C4C5CCC(C5)C4C3=O)cc2)cc1 (stereo not given)	inconclusive: 1.58 µM [inhibitor, partial curve, poor fit]	
CC(C)[Si]1(C(C)C)OCC2OC(n3cnc4c(N)ncnc43)C(N)C2O[Si](C(C)C)(C(C)C)O1 (stereo not given)	active: 12.6 µM	

SMILES	Potency	activity change, negative = inhibition
COc1ccc(CCNC(=O)c2noc(C(C)C)c2[N+](=O)[O-])cc1OC		inactive: 19.6%
CC(=O)Oc1ccc2c(=O)c(-c3ccccc3)coc2c1	inconclusive: 8.91 µM [inhibitor, partial curve, poor fit]	
COc1ccc(OC)c(CNC(=O)C2CCCN(c3ncnc4c3nc3n4CCCCC3)C2)c1 (stereo not given)	inconclusive: 5.62 µM [inhibitor, partial curve, poor fit]	
CCn1cc2nc(SCC(=O)Nc3ccc(OC)cc3OC)n(Cc3ccc(OC)cc3)c(=O)c2n1	inconclusive: 10 µM [inhibitor, partial curve, poor fit]	
COc1ccc(CNC(=O)CSc2nc(C)cs2)cc1	inconclusive: 2.24 µM [activator, partial curve, poor fit]	
COC(=O)c1ccc(NC(=O)C(=O)N2CCN(C(=S)NCCc3ccccc3)CC2)cc1		inactive: -2.36%
COc1ccc(NC(=O)CSCC(=O)NC2(C)CCS(=O)(=O)C2)cc1 (stereo not given)	inconclusive: 17.8 µM [activator, single point]	
O=C(Cc1c(F)cccc1Cl)Nc1ccc(S(=O)(=O)N2CCCC2)cc1	inconclusive: 7.08 µM [inhibitor, partial curve]	
CC(C)CC(=O)NC(=S)Nc1ccc(N2CCCC2)c(Cl)c1	inconclusive: 7.94 µM [activator, partial curve, poor fit]	
COC(=O)c1ccc([C@@H]2Nc3c(cccc3C(F)(F)F)[C@@H]3C=CC[C@@H]32)cc1	inconclusive: 35.5 µM [inhibitor, single point]	
COC(=O)c1c(-c2cc(OC)c(OC)c(OC)c2)c2ccc(OCc3ccccn3)cc2c(=O)n1-c1ccc(N)cc1	inconclusive: 3.55 µM [inhibitor, partial curve, poor fit]	
Cc1ccccc1NC(=S)NC(=O)Cc1ccc(Cl)cc1	inconclusive: 0.794 µM [activator, single point]	
COC(=O)NC/C=C\c1nc(CCCO)co1		inactive: -24% [at 14.2 µM]
Cc1ccc(C(=O)Nc2ccc(C)c(S(=O)(=O)Nc3ccccc3Cl)c2)s1		inactive: -28.7%
COc1ccccc1CCNC(=O)Cc1c(C)c2c(O)cc(C)cc2oc1=O		inactive: 5.42% [at 46.1 µM]
COc1ccc(NC(=O)CN(C)C(=O)c2cn(-c3ccccc3)nc2-c2ccc(Cl)cc2)cc1	inconclusive: 35.5 µM [inhibitor, partial curve, poor fit]	
CCC(=O)N/N=C(\C)CC(=O)Nc1ccc2ccccc2c1	inconclusive: 9.2 µM [activator, partial curve, poor fit]	
O=C(CSc1c2c(nc3ccccc13)CCC2)Nc1ccc(F)cc1F	inconclusive: 20 µM [inhibitor, single point]	
CCN(C(=S)NC(=O)c1ccccc1Br)C1CCCCC1	inconclusive: 35.5 µM [activator, single point]	
O=C(NC1CCCCCCC1)c1cccc(S(=O)(=O)N2CCOCC2)c1		inactive: 18.7%
CC12CCC(=O)C=C1CC(N1CC1)C1C2CCC2(C)C(O)CCC12 (stereo not given)	inconclusive: 17.8 µM [inhibitor, partial curve, poor fit]	
CC(C)Cn1nc(NS(=O)(=O)c2ccccc2)c2cc3ccccc3nc21		inactive: 5.81%

SMILES	Potency	activity change, negative = inhibition
Cn1nc(C(C)(C)C)cc1NC(=O)Nc1ccc(Cl)cc1	inconclusive: 0.562 µM [inhibitor, partial curve, poor fit]	
Cc1cccc(Nc2nnc(SCC(=O)NCC3CCCO3)s2)c1 (stereo not given)		inactive: -25.8%
O=C(Nc1cccc(F)c1)Nc1ccnn1C1CCN(C(=O)c2ccccn2)CC1	inconclusive: 0.224 µM [activator, full curve, poor fit]	
O=[N+]([O-])c1ccc(N2CCN(CCO)CC2)cc1Sc1ccccn1		inactive: 25.4% [at 46.1 µM]
CC(=O)Nc1ccc(NC(=O)C(C)NC(C)c2cccc3ccccc23)cc1 (stereo not given)	inconclusive: 11.2 µM [inhibitor, partial curve, poor fit]	
Cc1ccccc1-n1nc(C)c2cc(C(=O)N3CCN(S(=O)(=O)c4ccc(F)cc4)CC3)sc21	inactive and active: 20.6 µM	
CCn1nc(C)c(CN2CCc3c([nH]c4ccccc34)C2C(C)(C)C)c1C (stereo not given)	inconclusive: 35.5 µM [inhibitor, single point]	
COc1cccc(CN2CC(C(=O)N(C)Cc3[nH]c4ccccc4c3C)CCC2=O)c1 (stereo not given)		inactive: 16.6% [at 46.1 µM]
C=CCn1c(SCC(=O)N(C)C2CCCCC2)nnc1C1CC1	inconclusive: 3.98 µM [inhibitor, full curve, poor fit]	
COc1cccc(-c2cnc(NCc3cc(Cl)ccc3O)n2C)c1	inconclusive: 23.1 µM [inhibitor, single point]	
CCOC(=O)c1cnn2c(C)cc(-c3ccccc3)nc12		inactive: 9.08%
CC(C)CNC(=O)CN(C1CCCCC1)S(=O)(=O)c1ccccc1	inconclusive: 29.1 µM [inhibitor, single point]	
CC(C)Oc1ccc(C2CC(=O)N(c3cccc(/C=C/C(=O)O)c3)C2=O)cc1 (stereo not given)		inactive: 25.3% [at 46.1 µM]
COc1ccccc1OCC(O)Cn1c(=N)n(Cc2ccccc2)c2ccccc21 (stereo not given)	inconclusive: 18.3 µM [inhibitor, single point]	
CCCCC(CCC(=O)Nc1cc([N+](=O)[O-])ccc1O)C(=O)O (stereo not given)	inconclusive: 1.26 µM [inhibitor, single point]	
Cc1cccc(NC(=O)CSc2nc3c(oc4ccccc43)c(=O)n2-c2ccccc2)c1C	inconclusive: 35.5 µM [inhibitor, partial curve, poor fit]	
CCc1cc(=O)oc2cc(C)c3c(-c4ccc(F)cc4)coc3c12		inactive: 12.6% [at 46.1 µM]
CC(C)OC(=O)c1c(-c2ccc(C(C)C)cc2)csc1NC(=O)C1CCCO1 (stereo not given)	inconclusive: 17.8 µM [inhibitor, single point]	
CCCN(CCC)CCCNC(=O)c1cc2c(-c3ccc(Cl)cc3)nn(C)c2s1	inconclusive: 12.6 µM [inhibitor, partial curve, poor fit]	
O=C(Cc1ccccc1[N+](=O)[O-])N1CCc2ccccc2C1	inconclusive: 0.562 µM [activator, full curve, poor fit]	
CC(=O)N1CCCc2ccc(NS(=O)(=O)c3ccc(C)cc3)cc21	inconclusive: 35.5 µM [inhibitor, single point]	
